Measurements reported in PubChem BioAssay AID1671195 (Yale University, 2021).
The whole screen tested about 22,000 reagents; below is an unselected part. Over the whole deposit, about 1,510 (6.9%) got an active call. 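Active includes knockdowns raising or lowering LDL uptake; positive z-scores mean more uptake, negative mean less.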 A number with no mark means an inactive call. Reagents against one gene are numbered here.

Purpose: 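Knockdowns that increase or decrease uptake of fluorescent LDL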 (primary screen)
Cell system: human Huh7 hepatoma cells
Reagent: siRNA pool against human genes, 18 nM
Duration: about 2 to 2.5 days of knockdown, then 8 h LDL uptake
Conditions: DiI-labelled LDL at 30 µg/ml for 8 h, in lipoprotein-deficient serum medium
Measured: 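Per-cell DiI-LDL intensity by automated imaging; well means scaled to the plate median and given as a robust z-score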
Direction: robust z-score: higher = more LDL uptake after knockdown
Call rule: 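Active when two or more replicates show a robust z-score above 2 or below -2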

The first 4 entries as a preview:
gene | reagent | robust z-score, replicate 1 | robust z-score, replicate 2 | robust z-score, replicate 3
CSN1S1 (GeneID 1446) | 1 | 0.343 | 1.67 | 0.455
DPP7 (GeneID 29952) | 1 | 0.455 | 0.0984 | 0.143
ANOS1 (GeneID 3730) | 1 | 1.37 | 0.57 | 0.569
CD96 (GeneID 10225) | 1 | 0.386 | -1.38 | -0.896

Results, from the start:
gene | reagent | robust z-score, replicate 1 | robust z-score, replicate 2 | robust z-score, replicate 3
CSN1S1 (GeneID 1446) | 1 | 0.343 | 1.67 | 0.455
DPP7 (GeneID 29952) | 1 | 0.455 | 0.0984 | 0.143
ANOS1 (GeneID 3730) | 1 | 1.37 | 0.57 | 0.569
CD96 (GeneID 10225) | 1 | 0.386 | -1.38 | -0.896
KRT18P36 (GeneID 442406) | 1 | -1.75 | -1.7 | -1.47
MGME1 (GeneID 92667) | 1 | 0.199 | -0.929 | -0.798
PKP1 (GeneID 5317) | 1 | 2.52 (active) | 2.56 | 1.92
SAMTOR (GeneID 154743) | 1 | 2.48 (active) | 2.6 | 2.94
ROPN1L (GeneID 83853) | 1 | -0.227 | 0.0737 | -0.0691
C6orf163 (GeneID 206412) | 1 | -1.28 | -1.39 | -1.36
LOC441004 (retired record) (GeneID 441004) | 1 | -0.341 | -0.229 | -0.419
CCDC50 (GeneID 152137) | 1 | 0.774 | -0.643 | 0.2
ZMYND11 (GeneID 10771) | 1 | -0.729 | -0.139 | -0.33
AGTR1 (GeneID 185) | 1 | 2.01 | 0.412 | 1.22
AGPAT4-IT1 (GeneID 79992) | 1 | -0.363 | -0.134 | 0.0217
SERPINB9 (GeneID 5272) | 1 | 2.28 (active) | 3.02 | 6.24
TENM1 (GeneID 10178) | 1 | -0.46 | -0.836 | -1.45
DTL (GeneID 51514) | 1 | -0.243 | 0.106 | 0.114
MLLT1 (GeneID 4298) | 1 | 0.498 | 0.107 | 1.69
MLLT1 (GeneID 4298) | 2 | -1.13 | -0.399 | -1.04
R3HDML (GeneID 140902) | 1 | -1.33 | -1.8 | -1.11
OSTM1 (GeneID 28962) | 1 | 0.961 | -1.27 | 0.636
HLA-DQB1 (GeneID 3119) | 1 | -1.69 | -0.797 | -1.4
GPR61 (GeneID 83873) | 1 | 0.19 | -1.23 | -0.616
SDR16C6P (GeneID 442388) | 1 | 1.24 | 1.98 | 1.89
ERICH6 (GeneID 131831) | 1 | 0.301 | 0.131 | -1.21
UBXN2A (GeneID 165324) | 1 | 1.19 | 0.808 | 0.829
TPH2 (GeneID 121278) | 1 | -0.871 | -1.15 | -1.78
OR2C3 (GeneID 81472) | 1 | -0.12 | -0.69 | -0.65
RHOF (GeneID 54509) | 1 | -0.812 | -1.21 | -0.441
ACAT2 (GeneID 39) | 1 | 1.63 | 2.18 | 0.876
SGCG (GeneID 6445) | 1 | 1.72 | 0.392 | 0.131
LILRB4 (GeneID 11006) | 1 | -0.211 | -0.312 | 0.445
S1PR5 (GeneID 53637) | 1 | -1.4 | -1.03 | -1.21
SCPEP1 (GeneID 59342) | 1 | 0.148 | 0.861 | 0.43
RALGDS (GeneID 5900) | 1 | -0.00817 | 0.446 | 0.589
TMA16 (GeneID 55319) | 1 | 1.1 | 2.28 | 1.08
TMEM69 (GeneID 51249) | 1 | 3.69 (active) | 2.12 | -0.742
PPIAP26 (GeneID 121981) | 1 | 0.332 | 0.101 | 0.585
DNAJC28 (GeneID 54943) | 1 | -1.11 | -1.47 | -0.774
ZNF248 (GeneID 57209) | 1 | 0.648 | 1.04 | 0.326
FBLN7 (GeneID 129804) | 1 | -0.0135 | -0.247 | -0.447
SERBP1P1 (GeneID 389866) | 1 | 1.12 | 0.566 | -0.0267
TSPOAP1 (GeneID 9256) | 1 | -0.613 | -0.796 | -1.13
ZNF260 (GeneID 339324) | 1 | 0.0283 | 0.236 | -0.0938
BCL2 (GeneID 596) | 1 | 0.168 | -0.229 | -0.885
DHRS12 (GeneID 79758) | 1 | -1.22 | -1.39 | -1.46
EMD (GeneID 2010) | 1 | -0.338 | 0.22 | 0.182
SLC66A2 (GeneID 80148) | 1 | 0.635 | 0.46 | 0.49
TRIP13 (GeneID 9319) | 1 | 1.76 | 0.437 | 1.71
SATL1 (GeneID 340562) | 1 | -1.11 | -1.41 | -1.31
FOSB (GeneID 2354) | 1 | 1.62 | 1.1 | 0.87
PCDH1 (GeneID 5097) | 1 | 0.0861 | 0.316 | 0.167
ZNF577 (GeneID 84765) | 1 | 1.09 | 1.46 | 0.256
LOC153297 (retired record) (GeneID 153297) | 1 | -0.715 | -1.22 | 0.257
SOX9 (GeneID 6662) | 1 | -2.14 (active) | -1.53 | -2.3
C14orf132 (GeneID 56967) | 1 | -0.584 | 1 | 1.02
LOC343717 (retired record) (GeneID 343717) | 1 | -0.0504 | 0.0128 | 0.25
IFIH1 (GeneID 64135) | 1 | 0.318 | -0.185 | 0.122
LOC441148 (retired record) (GeneID 441148) | 1 | -0.125 | -0.435 | -0.188
LOC441095 (retired record) (GeneID 441095) | 1 | -1.29 | -1.63 | -1.25
MICAL1 (GeneID 64780) | 1 | 0.0522 | -0.00546 | -0.154
CACNG3 (GeneID 10368) | 1 | 1.28 | 1.93 | 1.99
MRPL55 (GeneID 128308) | 1 | 0.203 | 0.646 | 0.172
BSPRY (GeneID 54836) | 1 | 0.259 | 0.573 | 0.508
ASPSCR1 (GeneID 79058) | 1 | 2.9 (active) | 3.39 | 3.91
MORN1 (GeneID 79906) | 1 | -0.768 | -0.734 | -0.958
MTIF3 (GeneID 219402) | 1 | 1.05 | 1.02 | 1.44
